The values below come from publication PMC11055322.

Chains of the proteins cited; added tags and fusions are not shown. Residues count along the entry.
UniProt O95299, residues 36-355: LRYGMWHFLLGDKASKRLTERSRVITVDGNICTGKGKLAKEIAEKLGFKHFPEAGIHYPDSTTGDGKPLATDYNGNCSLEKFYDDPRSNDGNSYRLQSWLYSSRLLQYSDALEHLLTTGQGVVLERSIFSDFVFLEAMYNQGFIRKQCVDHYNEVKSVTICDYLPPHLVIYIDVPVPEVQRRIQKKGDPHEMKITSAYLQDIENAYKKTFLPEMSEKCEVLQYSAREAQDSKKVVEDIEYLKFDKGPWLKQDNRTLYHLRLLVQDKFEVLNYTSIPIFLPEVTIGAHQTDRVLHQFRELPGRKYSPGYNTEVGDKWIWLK

Test [1] has as its target T1, caveolin 3 (CAV3) (human (endogenous in AC16)) (UniProt P56539).
T1 sequence: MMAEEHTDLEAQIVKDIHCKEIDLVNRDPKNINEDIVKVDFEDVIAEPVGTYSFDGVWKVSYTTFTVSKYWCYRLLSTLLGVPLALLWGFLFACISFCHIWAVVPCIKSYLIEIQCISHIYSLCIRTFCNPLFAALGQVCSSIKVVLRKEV
The experiment in a line: co-IP; whole-cell lysates of cardiomyocytes in RIPA buffer with protease inhibitors; IP with rabbit anti-CAV3, rabbit anti-NDUFA10 or control IgG; protein A/G agarose; Western blot. For orientation: Immunoblotting shows a protein as a band on a membrane.

In test [2] the target is T1, caveolin 3 (CAV3) (human (endogenous in AC16)). The experiment in a line: co-IP; proteins extracted from mitochondria isolated from AC16 cells; IP with rabbit anti-CAV3 or rabbit anti-NDUFA10 antibody; protein A/G agarose; Western blot.
Test [3] has as its target NDUFA10, a subunit of mitochondrial complex I (human (endogenous in AC16)) (UniProt O95299). Described as above.

These are yes or no findings as the source states them, for the method shown. Binding seen in cells or lysates may run through a third protein. Some binding calls cover weakened binding; strength is not graded here.

As for “NDUFA10, a subunit of mitochondrial complex I (from UniProt O95299 36-355)”, the binding entry in test [1] and in test [2] was “binds” each time.

B1: caveolin 3 (CAV3) (protein, UniProt P56539 1-151)
chain: MMAEEHTDLEAQIVKDIHCKEIDLVNRDPKNINEDIVKVDFEDVIAEPVGTYSFDGVWKVSYTTFTVSKYWCYRLLSTLLGVPLALLWGFLFACISFCHIWAVVPCIKSYLIEIQCISHIYSLCIRTFCNPLFAALGQVCSSIKVVLRKEV
As for B1, the binding result in test [3] is given as “binds”.
